Source: the supplement of paper PMC10849652
The list shows a part of the results.

By UniProt entry, the sequences of proteins in these tests, tags left out. Where a name states a change or a piece, a line headed by the entry shows the natural chain unless it says otherwise.
UniProt P84085: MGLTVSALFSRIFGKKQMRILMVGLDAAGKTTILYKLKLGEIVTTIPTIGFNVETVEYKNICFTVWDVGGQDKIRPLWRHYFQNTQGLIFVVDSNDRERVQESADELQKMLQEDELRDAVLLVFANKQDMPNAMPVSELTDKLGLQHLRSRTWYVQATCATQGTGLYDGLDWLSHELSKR
UniProt P32121, whole entry, looked up: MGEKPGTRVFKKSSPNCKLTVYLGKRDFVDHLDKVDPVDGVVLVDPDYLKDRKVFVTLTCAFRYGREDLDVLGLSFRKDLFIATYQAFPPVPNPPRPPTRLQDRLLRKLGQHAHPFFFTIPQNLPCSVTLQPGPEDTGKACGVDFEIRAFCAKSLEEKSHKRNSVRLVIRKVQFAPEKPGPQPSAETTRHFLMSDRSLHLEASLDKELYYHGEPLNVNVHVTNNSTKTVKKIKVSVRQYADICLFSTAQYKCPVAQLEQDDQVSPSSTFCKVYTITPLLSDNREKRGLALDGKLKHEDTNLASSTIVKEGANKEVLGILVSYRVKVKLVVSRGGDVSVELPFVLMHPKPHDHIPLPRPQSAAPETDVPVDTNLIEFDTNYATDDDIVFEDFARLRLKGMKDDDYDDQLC
UniProt Q9BPX5, whole entry, looked up: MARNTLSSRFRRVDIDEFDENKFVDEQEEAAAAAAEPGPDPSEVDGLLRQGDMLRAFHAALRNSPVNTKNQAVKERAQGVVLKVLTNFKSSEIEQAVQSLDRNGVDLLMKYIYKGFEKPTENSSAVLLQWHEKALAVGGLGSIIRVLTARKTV
UniProt Q9NUS5: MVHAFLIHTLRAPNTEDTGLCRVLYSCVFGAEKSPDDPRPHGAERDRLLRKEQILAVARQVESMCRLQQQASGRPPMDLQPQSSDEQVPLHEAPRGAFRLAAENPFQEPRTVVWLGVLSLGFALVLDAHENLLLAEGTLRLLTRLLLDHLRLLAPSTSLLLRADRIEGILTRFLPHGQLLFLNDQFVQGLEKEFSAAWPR
UniProt P05090: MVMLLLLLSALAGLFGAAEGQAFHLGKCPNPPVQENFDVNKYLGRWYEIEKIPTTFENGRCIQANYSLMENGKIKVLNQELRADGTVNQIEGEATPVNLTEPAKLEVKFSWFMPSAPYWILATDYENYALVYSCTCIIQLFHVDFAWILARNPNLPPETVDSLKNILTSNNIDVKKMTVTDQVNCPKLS
UniProt P49407: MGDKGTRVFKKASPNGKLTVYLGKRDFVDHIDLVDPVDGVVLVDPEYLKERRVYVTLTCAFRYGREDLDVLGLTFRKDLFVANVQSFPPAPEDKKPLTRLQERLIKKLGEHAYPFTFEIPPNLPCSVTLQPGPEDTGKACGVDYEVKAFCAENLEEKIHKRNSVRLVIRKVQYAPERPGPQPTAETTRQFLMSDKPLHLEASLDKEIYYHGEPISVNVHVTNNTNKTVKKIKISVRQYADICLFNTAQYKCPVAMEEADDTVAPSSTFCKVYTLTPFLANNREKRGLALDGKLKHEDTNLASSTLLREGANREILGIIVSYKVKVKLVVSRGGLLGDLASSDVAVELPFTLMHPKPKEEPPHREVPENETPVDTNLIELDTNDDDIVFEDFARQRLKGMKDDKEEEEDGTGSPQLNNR
UniProt Q92619: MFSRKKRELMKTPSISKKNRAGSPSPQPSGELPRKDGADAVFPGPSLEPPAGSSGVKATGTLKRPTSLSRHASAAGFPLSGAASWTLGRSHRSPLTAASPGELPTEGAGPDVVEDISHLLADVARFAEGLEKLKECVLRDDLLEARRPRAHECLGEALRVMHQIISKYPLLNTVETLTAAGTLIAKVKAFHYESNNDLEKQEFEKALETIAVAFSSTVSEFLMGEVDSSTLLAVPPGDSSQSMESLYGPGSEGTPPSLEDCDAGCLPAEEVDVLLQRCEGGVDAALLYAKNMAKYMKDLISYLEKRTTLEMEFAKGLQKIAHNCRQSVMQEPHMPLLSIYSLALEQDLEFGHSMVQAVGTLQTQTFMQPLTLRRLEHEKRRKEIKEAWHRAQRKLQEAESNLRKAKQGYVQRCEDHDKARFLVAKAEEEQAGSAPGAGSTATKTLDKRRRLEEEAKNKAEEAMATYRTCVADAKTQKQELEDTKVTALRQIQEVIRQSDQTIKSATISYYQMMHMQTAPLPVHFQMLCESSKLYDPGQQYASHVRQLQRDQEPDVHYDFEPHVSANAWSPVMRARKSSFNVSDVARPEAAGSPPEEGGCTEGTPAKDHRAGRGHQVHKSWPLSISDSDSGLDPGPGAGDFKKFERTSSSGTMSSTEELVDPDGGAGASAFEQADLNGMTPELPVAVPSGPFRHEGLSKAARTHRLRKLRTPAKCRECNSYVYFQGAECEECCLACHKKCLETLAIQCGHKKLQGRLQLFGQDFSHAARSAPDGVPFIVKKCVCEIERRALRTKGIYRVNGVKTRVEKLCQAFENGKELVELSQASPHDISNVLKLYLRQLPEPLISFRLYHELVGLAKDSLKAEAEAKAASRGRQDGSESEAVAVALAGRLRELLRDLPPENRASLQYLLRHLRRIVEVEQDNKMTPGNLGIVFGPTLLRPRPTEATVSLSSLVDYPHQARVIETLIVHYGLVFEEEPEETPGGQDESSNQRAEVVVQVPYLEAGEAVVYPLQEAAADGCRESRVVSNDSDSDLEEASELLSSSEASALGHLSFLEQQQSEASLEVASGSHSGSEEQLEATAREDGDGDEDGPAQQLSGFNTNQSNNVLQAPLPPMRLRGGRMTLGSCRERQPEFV
UniProt Q53QZ3: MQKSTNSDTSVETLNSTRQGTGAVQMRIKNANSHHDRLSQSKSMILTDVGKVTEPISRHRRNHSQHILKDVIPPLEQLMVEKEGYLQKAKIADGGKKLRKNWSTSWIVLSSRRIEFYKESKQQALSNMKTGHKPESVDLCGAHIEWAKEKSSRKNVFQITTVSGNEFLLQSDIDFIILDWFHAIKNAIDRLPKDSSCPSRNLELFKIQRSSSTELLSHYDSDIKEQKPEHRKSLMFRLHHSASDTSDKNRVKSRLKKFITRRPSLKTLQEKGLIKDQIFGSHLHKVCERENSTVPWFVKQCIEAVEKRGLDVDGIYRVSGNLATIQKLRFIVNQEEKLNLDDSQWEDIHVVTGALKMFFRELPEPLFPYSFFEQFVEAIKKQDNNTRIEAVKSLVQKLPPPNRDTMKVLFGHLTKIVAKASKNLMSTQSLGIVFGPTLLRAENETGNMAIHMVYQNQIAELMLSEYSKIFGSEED
UniProt Q02410: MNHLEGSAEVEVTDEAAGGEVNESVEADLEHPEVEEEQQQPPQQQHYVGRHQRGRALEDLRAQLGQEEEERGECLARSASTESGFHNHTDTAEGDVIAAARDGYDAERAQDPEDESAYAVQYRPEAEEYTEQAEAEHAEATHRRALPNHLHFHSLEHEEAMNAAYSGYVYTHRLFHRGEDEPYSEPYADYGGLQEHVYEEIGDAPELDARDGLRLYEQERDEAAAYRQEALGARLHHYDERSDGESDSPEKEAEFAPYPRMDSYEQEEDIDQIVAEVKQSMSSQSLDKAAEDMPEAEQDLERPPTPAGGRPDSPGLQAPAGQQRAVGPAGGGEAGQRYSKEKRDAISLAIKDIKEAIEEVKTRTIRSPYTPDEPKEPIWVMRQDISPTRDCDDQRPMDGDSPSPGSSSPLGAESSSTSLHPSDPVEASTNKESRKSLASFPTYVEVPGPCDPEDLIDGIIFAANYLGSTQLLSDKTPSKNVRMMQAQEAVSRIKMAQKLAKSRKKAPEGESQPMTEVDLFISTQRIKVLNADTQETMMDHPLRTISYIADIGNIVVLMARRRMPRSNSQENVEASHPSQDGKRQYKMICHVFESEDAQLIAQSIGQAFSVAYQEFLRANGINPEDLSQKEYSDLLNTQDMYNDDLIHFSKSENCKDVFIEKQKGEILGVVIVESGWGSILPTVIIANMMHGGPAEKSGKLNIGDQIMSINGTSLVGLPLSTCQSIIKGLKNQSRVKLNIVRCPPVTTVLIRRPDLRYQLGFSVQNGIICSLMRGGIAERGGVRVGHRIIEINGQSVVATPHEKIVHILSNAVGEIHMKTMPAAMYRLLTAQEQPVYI
UniProt P40616: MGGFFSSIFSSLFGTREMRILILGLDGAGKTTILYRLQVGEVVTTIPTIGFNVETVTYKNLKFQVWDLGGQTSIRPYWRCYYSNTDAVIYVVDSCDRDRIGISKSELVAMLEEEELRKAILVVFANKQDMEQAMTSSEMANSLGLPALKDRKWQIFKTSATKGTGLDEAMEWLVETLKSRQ
UniProt P02749: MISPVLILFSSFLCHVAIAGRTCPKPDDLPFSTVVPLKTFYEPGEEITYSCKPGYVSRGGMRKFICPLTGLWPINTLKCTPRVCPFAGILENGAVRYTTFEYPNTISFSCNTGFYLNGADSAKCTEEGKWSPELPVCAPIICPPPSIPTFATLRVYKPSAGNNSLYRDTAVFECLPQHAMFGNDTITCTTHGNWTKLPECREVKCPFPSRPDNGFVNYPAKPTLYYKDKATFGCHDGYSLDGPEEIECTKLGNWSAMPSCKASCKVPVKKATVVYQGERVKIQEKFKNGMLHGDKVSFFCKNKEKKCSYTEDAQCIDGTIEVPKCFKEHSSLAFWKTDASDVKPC
UniProt P84077: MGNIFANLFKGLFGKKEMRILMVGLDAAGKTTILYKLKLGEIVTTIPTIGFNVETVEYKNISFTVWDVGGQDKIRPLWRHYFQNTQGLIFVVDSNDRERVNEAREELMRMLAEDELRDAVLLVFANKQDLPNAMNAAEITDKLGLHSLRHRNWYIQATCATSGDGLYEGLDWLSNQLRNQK
UniProt O43182: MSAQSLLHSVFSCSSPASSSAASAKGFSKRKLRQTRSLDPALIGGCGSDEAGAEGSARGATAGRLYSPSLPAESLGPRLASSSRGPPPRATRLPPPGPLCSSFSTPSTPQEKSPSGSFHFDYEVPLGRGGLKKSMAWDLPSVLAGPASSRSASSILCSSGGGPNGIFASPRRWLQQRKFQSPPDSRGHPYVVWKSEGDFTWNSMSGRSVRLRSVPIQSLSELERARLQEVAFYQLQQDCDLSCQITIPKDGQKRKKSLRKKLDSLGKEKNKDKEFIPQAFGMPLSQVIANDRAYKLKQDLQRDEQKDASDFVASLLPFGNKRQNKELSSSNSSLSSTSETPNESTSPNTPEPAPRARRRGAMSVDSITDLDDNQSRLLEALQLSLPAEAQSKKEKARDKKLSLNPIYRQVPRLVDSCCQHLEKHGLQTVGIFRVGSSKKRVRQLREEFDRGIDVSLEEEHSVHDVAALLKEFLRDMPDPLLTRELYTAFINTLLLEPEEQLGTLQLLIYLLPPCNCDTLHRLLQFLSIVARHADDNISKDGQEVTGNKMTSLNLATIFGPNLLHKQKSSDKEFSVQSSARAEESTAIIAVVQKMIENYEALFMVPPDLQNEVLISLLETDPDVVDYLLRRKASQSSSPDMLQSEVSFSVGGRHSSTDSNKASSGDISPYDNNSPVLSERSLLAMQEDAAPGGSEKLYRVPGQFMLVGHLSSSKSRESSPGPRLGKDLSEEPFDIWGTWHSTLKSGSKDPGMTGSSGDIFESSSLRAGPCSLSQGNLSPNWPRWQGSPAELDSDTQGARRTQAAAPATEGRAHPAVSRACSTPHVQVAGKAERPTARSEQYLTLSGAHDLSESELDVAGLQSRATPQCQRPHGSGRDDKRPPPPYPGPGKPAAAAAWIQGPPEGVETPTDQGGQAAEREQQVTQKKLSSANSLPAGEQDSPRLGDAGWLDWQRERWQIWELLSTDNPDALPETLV
UniProt Q66PJ3: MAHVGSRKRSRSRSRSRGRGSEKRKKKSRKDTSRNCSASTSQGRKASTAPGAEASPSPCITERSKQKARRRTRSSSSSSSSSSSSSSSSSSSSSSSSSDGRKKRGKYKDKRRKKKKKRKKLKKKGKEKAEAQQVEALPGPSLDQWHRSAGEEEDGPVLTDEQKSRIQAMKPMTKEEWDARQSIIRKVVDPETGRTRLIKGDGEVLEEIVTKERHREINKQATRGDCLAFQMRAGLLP
UniProt Q3SXY8: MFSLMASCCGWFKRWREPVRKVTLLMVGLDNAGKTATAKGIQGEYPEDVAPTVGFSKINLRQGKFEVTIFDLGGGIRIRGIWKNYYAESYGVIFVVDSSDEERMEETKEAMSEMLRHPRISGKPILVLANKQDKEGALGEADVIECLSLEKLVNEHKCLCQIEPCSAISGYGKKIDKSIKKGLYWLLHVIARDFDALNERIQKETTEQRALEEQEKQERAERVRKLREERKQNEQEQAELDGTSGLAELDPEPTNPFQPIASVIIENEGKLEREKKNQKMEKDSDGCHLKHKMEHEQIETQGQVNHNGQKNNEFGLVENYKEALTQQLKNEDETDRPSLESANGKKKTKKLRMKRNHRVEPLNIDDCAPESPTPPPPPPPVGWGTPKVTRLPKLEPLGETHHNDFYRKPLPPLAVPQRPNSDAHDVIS
UniProt P52566: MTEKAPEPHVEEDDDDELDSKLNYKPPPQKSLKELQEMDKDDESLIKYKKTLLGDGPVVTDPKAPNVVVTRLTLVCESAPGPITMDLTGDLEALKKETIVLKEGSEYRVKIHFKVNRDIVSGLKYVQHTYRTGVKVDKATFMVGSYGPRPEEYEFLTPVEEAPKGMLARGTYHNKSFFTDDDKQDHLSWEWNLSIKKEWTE

Key:
Assay in all cases: log2 fold change, soluble protein after heating vs DMSO (PISA); higher = thermal stabilisation; K562 lysate, 10 uM; active = over 0.2 and 3.5 SD of the protein, either way, in both replicates (recomputed)
[1] = compound: CS(=O)(=O)CCNCc1ccc(-c2ccc3ncnc(Nc4ccc(OCc5cccc(F)c5)c(Cl)c4)c3c2)o1 [lapatinib]
Method in brief: (§1)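 To prepare the extract, K562 pellets were dounce-homogenised in PBS pH 7.4 with 1 mM MgCl2, giving crude material at 1 mg/mL protein. This was treated with 10 μM compound for 30 min, then heated in aliquots for 3 min over 48°C-58°C before pooling and addition of NP-40 to 0.5% at 4°C. Centrifugation at 21,000xg for 90 min left soluble protein in the supernatant, which TMTpro 16plex LC-MS/MS quantified with equalised channel sums. Results are log-two fold changes in thermal stability compared with solvent controls, from duplicates.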

[2] = compound: CS(=O)(=O)N1CCN(Cc2cc3nc(-c4cccc5[nH]ncc45)nc(N4CCOCC4)c3s2)CC1 [pictilisib]
Method in brief: as §1

[3] = compound: C[C@@H](Oc1cc(-c2cnn(C3CCNCC3)c2)cnc1N)c1c(Cl)ccc(F)c1Cl [crizotinib]
Method in brief: as §1

[4] = compound: C[C@H](C1=CC=C(C=C1)C(=O)NC2=C3C=CNC3=NC=C2)N
Method in brief: as §1

[5] = compound: C[C@H](Nc1ncnc2nc[nH]c12)c1cc2cccc(Cl)c2c(=O)n1-c1ccccc1 [duvelisib]
Method in brief: as §1

[6] = compound: Cc1cc(Nc2cc(CN3CCOCC3)c3nc(C)c(Cc4ccc(Cl)cc4F)n3n2)n[nH]1 [gandotinib]
Method in brief: as §1

[7] = compound: Cc1cc(Nc2cc(N3CCN(C)CC3)nc(Sc3ccc(NC(=O)C4CC4)cc3)n2)n[nH]1 [tozasertib]
Method in brief: as §1

[8] = compound: Cc1ccc(-n2nc(C(C)(C)C)cc2NC(=O)Nc2ccc(OCCN3CCOCC3)c3ccccc23)cc1 [doramapimod]
Method in brief: as §1

[9] = compound: Cc1ccc(NC(=O)c2ccc(CN3CC[C@H](N(C)C)C3)c(C(F)(F)F)c2)cc1Nc1nccc(-c2cncnc2)n1 [bafetinib]
Method in brief: as §1

[10] = compound: Cc1cccc(CC(=O)N2CCc3c2ccc(-c2cn(C)c4ncnc(N)c24)c3F)n1
Method in brief: as §1

[11] = compound: Cc1cn(-c2cc(NC(=O)c3ccc(C)c(Nc4nccc(-c5cccnc5)n4)c3)cc(C(F)(F)F)c2)cn1 [nilotinib]
Method in brief: as §1

[12] = compound: Cc1nc(Nc2n[nH]c3c2CN(C(=O)N[C@H](CN(C)C)c2ccccc2)C3(C)C)c2sccc2n1
Method in brief: as §1

[13] = compound: Cc1nc(Nc2ncc(C(=O)Nc3c(C)cccc3Cl)s2)cc(N2CCN(CCO)CC2)n1 [dasatinib]
Method in brief: as §1

[14] = compound: Cc1ncc(-c2ccnc(Nc3ccc(S(C)(=O)=O)cc3)n2)n1C(C)C
Method in brief: as §1

[15] = compound: Cn1cc(-c2ccc3c(c2)CCN3C(=O)Cc2cccc(C(F)(F)F)c2)c2c(N)ncnc21
Method in brief: as §1

[16] = compound: Cn1cc(CNCC2CCN(c3ncc(C(=O)NO)cn3)CC2)c2ccccc21 [quisinostat]
Method in brief: as §1

[17] = compound: Cn1cncc1[C@@](N)(c1ccc(Cl)cc1)c1ccc2c(c1)c(-c1cccc(Cl)c1)cc(=O)n2C [tipifarnib]
Method in brief: as §1

[18] = compound: NC(=O)Nc1cc(-c2cccc(F)c2)sc1C(=O)N[C@H]1CCCNC1
Method in brief: as §1

[19] = compound: NC(=O)c1cnc(N[C@@H]2CCCC[C@@H]2N)nc1Nc1cccc(-n2nccn2)c1
Method in brief: as §1

[20] = compound: NC1(c2ccc(-c3nc4ccn5c(=O)[nH]nc5c4cc3-c3ccccc3)cc2)CCC1
Method in brief: as §1

Measured: log2 fold change

ARF5 (UniProt P84085)
inactive: [1] 0.018 | [2] 0.034 | [3] 0.019 | [4] -0.076 | [5] 0.011 | [6] 0.075 | [7] -0.008 | [8] 0.144 | [9] 0.014 | [10] 0.025 | [11] 0.018 | [12] 0.032 | [13] 0.016 | [14] -0.005 | [15] -0.01 | [16] -0.018 | [17] 0.006 | [18] -0.045 | [19] -0.024 | [20] 0.011

ARRB2 isoform 3 (UniProt P32121)
inactive: [1] -0.031 | [2] -0.058 | [3] -0.03 | [4] -0.127 | [5] 0.022 | [6] 0.031 | [7] -0.031 | [8] 0.024 | [9] 0.018 | [10] 0.034 | [11] 0.008 | [12] -0.036 | [13] -0.031 | [14] -0.006 | [15] 0.046 | [16] -0.064 | [17] 0.014 | [18] -0.011 | [19] 0.006 | [20] 0.022

ARPC5L (UniProt Q9BPX5)
inactive: [1] 0.026 | [2] 0.03 | [3] -0.007 | [4] 0.008 | [5] -0.004 | [6] -0.013 | [7] -0.018 | [8] 0.006 | [9] 0.06 | [10] 0.035 | [11] -0.043 | [12] 0.018 | [13] -0.03 | [14] -0.006 | [15] -0.026 | [16] -0.041 | [17] -0.057 | [18] -0.037 | [19] 0.009 | [20] -0.027

AP5S1 (UniProt Q9NUS5)
inactive: [1] 0.133 | [3] -0.006 | [5] -0.024 | [7] -0.131 | [8] -0.111 | [13] 0.001 | [15] -0.071 | [16] 0.086 | [18] 0.009 | [19] -0.058 | [20] 0.132

APOD (UniProt P05090)
inactive: [1] 0.449 | [3] 0.544 | [4] 0.277 | [5] -0.168 | [6] -0.117 | [7] 0.276 | [8] -0.403 | [10] -0.605 | [13] 0.411 | [15] 0.275 | [16] -0.195 | [18] -0.105 | [19] 0.942

ARRB1 isoform 2 (UniProt P49407)
inactive: [1] -0.012 | [2] -0.043 | [3] 0.051 | [5] -0.025 | [7] -0.083 | [8] -0.115 | [9] -0.024 | [11] 0.014 | [12] 0.054 | [13] -0.09 | [14] 0 | [15] 0.037 | [16] 0.058 | [17] 0.084 | [18] 0.196 | [19] -0.011 | [20] 0.004

ARHGAP45 isoform 2 (UniProt Q92619)
inactive: [1] 0.058 | [2] -0.02 | [3] -0.001 | [4] -0.001 | [5] 0.003 | [6] 0.048 | [7] 0.022 | [8] -0.009 | [9] -0.046 | [10] -0.004 | [11] -0.003 | [12] -0.002 | [13] -0.047 | [14] 0.048 | [15] 0.028 | [16] 0.013 | [17] -0.036 | [18] 0.011 | [19] -0.003 | [20] 0.015

ARHGAP15 (UniProt Q53QZ3)
inactive: [1] 0.043 | [3] -0.166 | [7] 0.048 | [8] -0.082 | [16] 0.142 | [18] 0.268 | [19] -0.013

APBA1 (UniProt Q02410)
inactive: [1] 0.053 | [2] 0.049 | [3] -0.046 | [4] -0.128 | [6] -0.01 | [7] 0.022 | [8] 0.053 | [9] 0.009 | [10] -0.016 | [11] -0.058 | [12] -0.045 | [14] -0.015 | [16] -0.095 | [17] 0.059 | [18] -0.054 | [19] -0.023 | [20] 0.035

ARL1 (UniProt P40616)
inactive: [1] 0.001 | [2] 0.051 | [3] -0.028 | [4] -0.056 | [5] 0.001 | [6] 0.159 | [7] 0.004 | [9] -0.027 | [10] 0.096 | [11] 0.092 | [12] -0.074 | [13] 0.026 | [14] -0.118 | [15] -0.016 | [16] -0.082 | [17] -0.268 | [18] 0.01 | [19] -0.001 | [20] 0.005
active: [8] 0.228

APOH (UniProt P02749)
inactive: [1] 0.169 | [2] 0.265 | [3] 0.205 | [8] -0.124 | [9] 0.056 | [16] -0.082 | [18] 0.082 | [19] 0.062

ARF1 (UniProt P84077)
inactive: [1] -0.062 | [3] 0 | [4] -0.169 | [6] 0.301 | [8] 0.011 | [10] -0.284 | [16] -0.055 | [18] 0.033 | [19] 0.155 | [20] -0.05

ARPIN isoform 2 (UniProt Q7Z6K5)
inactive: [1] -0.01 | [2] 0.028 | [3] -0.061 | [4] -0.015 | [5] -0.045 | [6] -0.056 | [7] 0.185 | [8] 0.113 | [9] -0.078 | [10] 0.155 | [11] 0.009 | [12] 0.014 | [13] -0.133 | [14] -0.025 | [15] -0.174 | [16] -0.034 | [17] 0.024 | [18] -0.004 | [19] -0.01 | [20] 0.081

Pulled one by one from the list above (two):
APBA1 (UniProt Q02410)
inactive: [1] 0.053 | [2] 0.049 | [3] -0.046 | [4] -0.128 | [6] -0.01 | [7] 0.022 | [8] 0.053 | [9] 0.009 | [10] -0.016 | [11] -0.058 | [12] -0.045 | [14] -0.015 | [16] -0.095 | [17] 0.059 | [18] -0.054 | [19] -0.023 | [20] 0.035

ARRB1 isoform 2 (UniProt P49407)
inactive: [1] -0.012 | [2] -0.043 | [3] 0.051 | [5] -0.025 | [7] -0.083 | [8] -0.115 | [9] -0.024 | [11] 0.014 | [12] 0.054 | [13] -0.09 | [14] 0 | [15] 0.037 | [16] 0.058 | [17] 0.084 | [18] 0.196 | [19] -0.011 | [20] 0.004

Next records

ARHGAP6 (UniProt O43182)
inactive: [1] 0.006 | [2] 0.012 | [3] -0.038 | [4] 0.106 | [5] 0.001 | [6] -0.097 | [7] 0.004 | [8] -0.003 | [9] -0.055 | [10] -0.022 | [11] -0.003 | [12] -0.014 | [13] -0.102 | [14] 0 | [15] 0.052 | [16] -0.019 | [17] 0.02 | [18] 0.034 | [19] -0.025 | [20] -0.039

ARL6IP4 isoform 4 (UniProt Q66PJ3)
inactive: [1] 0.141 | [4] -0.135 | [6] -0.068 | [10] -0.396 | [19] -0.197

ARID1A (UniProt O14497)
inactive: [1] -0.017 | [2] -0.029 | [3] -0.022 | [4] -0.017 | [5] -0.005 | [6] -0.049 | [7] 0.005 | [8] 0.013 | [9] -0.068 | [10] 0.031 | [11] -0.013 | [12] 0.014 | [13] -0.028 | [14] -0.016 | [15] -0.005 | [16] -0.014 | [17] -0.006 | [18] 0.013 | [19] -0.003 | [20] 0.002

APH1A (UniProt Q96BI3)
inactive: [1] -0.073 | [2] 0.031 | [3] -0.034 | [4] 0.153 | [6] -0.028 | [7] 0.07 | [8] -0.029 | [9] -0.027 | [10] -0.204 | [11] -0.006 | [12] -0.036 | [14] 0.069 | [16] 0.026 | [17] 0.017 | [18] 0.015 | [19] -0.035 | [20] 0.019

ARL13B (UniProt Q3SXY8)
inactive: [1] 0.016 | [2] -0.074 | [3] -0.075 | [5] 0.014 | [6] -0.23 | [8] -0.068 | [9] 0.025 | [10] -0.217 | [13] 0 | [15] -0.012 | [16] -0.313 | [18] 0.095 | [19] 0.131 | [20] 0.013
active: [4] 0.4

ARHGDIB (UniProt P52566)
inactive: [1] 0.007 | [2] 0.023 | [3] 0.004 | [4] 0.03 | [5] 0.04 | [6] -0.039 | [7] 0.03 | [8] 0.039 | [9] -0.018 | [10] -0.055 | [11] 0.015 | [12] -0.037 | [13] -0.061 | [14] -0.012 | [15] -0.007 | [16] -0.012 | [17] 0.017 | [18] 0.021 | [19] 0.015 | [20] 0.008
